Laboratory results: patent US8809350B2, “Purine and pyrimidine CDK inhibitors and their use for the treatment of autoimmune diseases” (priority 2004, dated 2014)
Where two headings read alike, the source gives them in different places.

Key:
tumour cell panels = assay: In-house 72 hour cytotoxicity assays on tumour cell panels; assay type: cell-based

SMILES | IC50 (tumour cell panels; 72 h, read-out: IC50 Average) | IC50 (tumour cell panels; PBMC, read-out: IC50 Used) | IC50 (PKC)
CCC(CO)Nc1nc(NCc2ccccc2)c2ncn(C(C)C)c2n1 (stereo not drawn) [Compound 2] | 16.4 µM | 16 µM | –
CC[C@H](CO)Nc1nc(NCc2ccccc2)c2ncn(C(C)C)c2n1 [roscovitine, 2-[(1-ethyl-2-hydroxyethyl)amino]-6-benzylamine-9-isopropylpurine] | – | – | > 50 µM
